Measured values reported in article PMC4267777.
These are yes or no findings as the source states them, for the method shown. Some entries that bind do so weakly or less than the wild type.

Amino acid sequences for entries named in this document (tags omitted).
UniProt P22535: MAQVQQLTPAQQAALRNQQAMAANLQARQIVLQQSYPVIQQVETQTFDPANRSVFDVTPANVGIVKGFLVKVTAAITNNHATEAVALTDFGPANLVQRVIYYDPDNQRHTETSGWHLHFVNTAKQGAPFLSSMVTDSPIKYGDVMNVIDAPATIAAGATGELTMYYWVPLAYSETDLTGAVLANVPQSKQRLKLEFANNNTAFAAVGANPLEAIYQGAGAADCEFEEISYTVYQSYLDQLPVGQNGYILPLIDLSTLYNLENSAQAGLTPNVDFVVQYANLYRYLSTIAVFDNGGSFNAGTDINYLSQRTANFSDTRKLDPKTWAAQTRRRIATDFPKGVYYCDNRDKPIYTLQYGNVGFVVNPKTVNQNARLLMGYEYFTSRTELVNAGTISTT

Biological target: major capsid protein P3 of bacteriophage PRD1 (bacteriophage PRD1) (UniProt P22535)
Assay: cryo-EM structure; mature wt PRD1 virion, purified particles, single particle reconstruction without icosahedral symmetry imposition at 12 Å; crystal structures of P3 and P31 docked; proteins assigned by comparison with procapsid and mutant particles

With “major capsid protein P3 of bacteriophage PRD1 (from UniProt P22535 1-395)” the binding was “binds”.
